# Data published in paper PMC12120709.
# Chains of the proteins cited; added tags and fusions are not shown. Residues count along the entry.
# UniProt P09055, residues 21-798: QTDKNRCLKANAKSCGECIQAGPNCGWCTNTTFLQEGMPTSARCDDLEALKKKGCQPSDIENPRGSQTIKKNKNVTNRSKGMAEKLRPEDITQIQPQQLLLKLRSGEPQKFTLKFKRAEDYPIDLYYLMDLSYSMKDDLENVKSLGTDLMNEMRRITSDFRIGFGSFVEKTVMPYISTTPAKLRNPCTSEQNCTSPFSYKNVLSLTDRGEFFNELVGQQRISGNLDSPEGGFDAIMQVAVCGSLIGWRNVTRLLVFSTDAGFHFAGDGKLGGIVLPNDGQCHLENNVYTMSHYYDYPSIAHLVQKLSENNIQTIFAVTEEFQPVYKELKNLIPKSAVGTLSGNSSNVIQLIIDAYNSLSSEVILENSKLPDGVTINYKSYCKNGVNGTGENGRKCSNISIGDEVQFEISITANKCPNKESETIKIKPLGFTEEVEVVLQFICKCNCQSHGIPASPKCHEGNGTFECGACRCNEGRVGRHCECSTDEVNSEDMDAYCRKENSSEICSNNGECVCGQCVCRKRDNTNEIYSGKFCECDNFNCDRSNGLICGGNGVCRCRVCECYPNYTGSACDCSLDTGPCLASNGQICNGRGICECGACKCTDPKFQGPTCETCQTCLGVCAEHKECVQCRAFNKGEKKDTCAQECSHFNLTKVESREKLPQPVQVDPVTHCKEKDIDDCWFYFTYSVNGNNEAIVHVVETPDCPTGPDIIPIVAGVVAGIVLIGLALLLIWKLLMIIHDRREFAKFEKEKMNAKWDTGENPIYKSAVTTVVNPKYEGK
# No constants are given. Whether binding was seen depends on the method and setting. Binding seen in cells or lysates may run through a third protein. Some binding calls cover weakened binding; strength is not graded here.
# B1: NaBC1 boron transporter (protein, UniProt A2AJN7 1-862)
# chain: MSQNEHCQDSGEYFSAGTQGYFKNNMEDNLEVREDSLGDEVFDTVNSSIVSGESIRFFVNVNLEVQPSKSDLEAATGGCVLLHTSRKYLKLKNFEEEVRAHRDLDGFLAQASIILNETATSLDDVLRTMLNRFALDPNHAEPDCDLDLLMAKLFTDAGAPMESKVHLLSDTIQGVTATVRGVQYEQSWLCIICTMKTLQKRHVCISRLVRPQNWGENSCEVRFVILVLAPPKMKSTKTAMEVARTFATMFSDITFRQKLLKTRTEEEFKEALVHQRQLLTMMMPRAAGHSMSSLHTHRHPQPPKCKDFFPFGKGIWMDIMRRFPVYPMDFTDGIIGKSKSVGKYVTTTLFLYFACLLPTIAFGSLNDENTNGAIDVQKTIAGQSIGGLLYALFSGQPLVILLTTAPLAIYTQVIRVICDDYNLDFNAFYAWTGLWNSFFLALYAFLNLSLLMNLFKRSTEEIIALFISITFVLDAVKGMVKIFGKYYYGHHYHTKRTSSLVSLLGIGRSPNSSLHTALNASLLASPVEMATTSSPGSTHSGQATAVLSLLIMLGTLWLGYTLYQFKKSPYLHPCVRETLSDCALPIAVLSFSLIGSYGFQEIEMSKFRYNPSESLFEVAQIHSLSFKAIGSAMGLGFLLSLLFFIEQNLVAALVNAPENRLVKGTAYHWDLLLLAIINTGLSLFGLPWIHAAYPHSPLHVRALALVEERVENGHIYETIVDVKETRLTALGASVLVGLSLLLLPFPLQWIPKPVLYGLFLYIALTSLDGNQLFSRVALLLKEQTSYPPTHYIRRVPQRKIHYFTGLQILQLLLLCAFGMSSLPYMKMVFPLIMIAMIPIRYNLLPRIIEAKYLDVMDAEHRP
# How the values were obtained:
# [1] = target: T1, vinculin (mouse (endogenous in C2C12)) (UniProt Q64727); assay: co-IP; C2C12 cells on rigid PAAm hydrogels without or with boron (1.47 mM) for 24 h; lysate (2 mg) on antibodies against β1 integrin or vinculin conjugated to protein A or G Dynabeads; immunoblot for NaBC1
# T1 sequence: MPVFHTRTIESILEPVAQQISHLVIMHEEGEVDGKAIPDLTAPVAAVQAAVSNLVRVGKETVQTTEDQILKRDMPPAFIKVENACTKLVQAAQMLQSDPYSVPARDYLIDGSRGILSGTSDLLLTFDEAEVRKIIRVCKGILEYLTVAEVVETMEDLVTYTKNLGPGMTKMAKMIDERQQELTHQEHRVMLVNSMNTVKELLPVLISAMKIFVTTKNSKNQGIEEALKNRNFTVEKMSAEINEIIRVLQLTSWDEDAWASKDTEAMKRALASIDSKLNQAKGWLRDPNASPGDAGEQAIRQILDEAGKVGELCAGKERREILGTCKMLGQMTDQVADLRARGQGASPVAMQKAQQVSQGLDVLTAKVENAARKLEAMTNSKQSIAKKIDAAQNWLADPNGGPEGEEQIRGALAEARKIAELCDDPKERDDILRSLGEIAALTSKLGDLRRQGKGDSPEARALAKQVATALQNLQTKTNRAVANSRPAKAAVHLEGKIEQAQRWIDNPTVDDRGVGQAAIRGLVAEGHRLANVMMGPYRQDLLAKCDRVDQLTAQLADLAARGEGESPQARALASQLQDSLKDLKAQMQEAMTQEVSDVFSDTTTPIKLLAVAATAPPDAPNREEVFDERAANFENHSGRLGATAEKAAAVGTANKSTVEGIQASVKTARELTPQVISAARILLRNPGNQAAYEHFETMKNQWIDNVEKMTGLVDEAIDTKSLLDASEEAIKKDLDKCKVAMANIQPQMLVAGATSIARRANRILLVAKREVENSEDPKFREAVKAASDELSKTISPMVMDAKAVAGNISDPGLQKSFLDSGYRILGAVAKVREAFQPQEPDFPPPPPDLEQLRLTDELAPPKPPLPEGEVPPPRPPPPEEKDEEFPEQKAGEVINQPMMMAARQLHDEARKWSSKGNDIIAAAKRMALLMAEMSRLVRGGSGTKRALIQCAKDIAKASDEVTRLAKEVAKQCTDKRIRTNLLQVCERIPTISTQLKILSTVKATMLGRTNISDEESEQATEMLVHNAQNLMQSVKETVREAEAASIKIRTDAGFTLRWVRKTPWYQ
# [2] = target: β1 integrin (mouse (endogenous in C2C12)) (UniProt P09055); assay: as above
binder,measurement,setting,value
B1,binding,[1],binds
same,binding,[2],binds
